US20250152750A1 (Cancer Research Technology Limited, priority 2022, published 2025)
“Also recorded” adds a separate entry of the source. At least one compound was matched to its structure with a doubt left.

Test system: SK-MEL-103 xenografts
Assay: Senescence induction in tumours (SA-β-Gal, pRB/Ki-67 staining, growth curves)
Format: in vivo, mice

CC(=O)c1c(C)c2cnc(Nc3ccc(N4CCNCC4)cn3)nc2n(C2CCCC2)c1=O [Palbociclib]
nuclear staining of pRB and Ki-67 (IHC of tumor slices): decrease in nuclear pRB and Ki-67; also recorded: loss in the nuclear staining | β-galactosidase activity / senescent cells in tumours (X-gal staining of tumours, 7 days treatment): senescent cells presence; also recorded: high number of senescent cells; also recorded: strong β-galactosidase activity; also recorded: increased β-galactosidase activity | tumor growth / proliferation rate (daily oral gavage, treated vs untreated tumors): marked decrease in proliferation rate; also recorded: marked reduction in growth rate
